Source: patent US20160376247A1, “NOVEL TEMPERATURE-SENSITIVE FLUORESCENT COMPOUND AND APPLICATION THEREOF” (SHANGHAI INSTITUTES FOR BIOLOGICAL SCIENCES, CHINESE …, priority 2013, published 2016)
Some compounds share one wording; it may come from a single statement.

How the values were obtained:
[1] = test system: live cells; test: Intracellular distribution of dye and calibration dye in stained live cells; type: cell-based; settings: temperature-sensitive dye and its calibration dye
[2] = test system: COS7 cells; test: Confocal imaging of COS7 cells co-stained with dye and Rh800 (mitochondrial distribution); type: cell-based; settings: co-staining with Rh800
[3] = test system: HepG2 cells; test: Staining of living HepG2 cells, Stokes and anti-Stokes luminescence imaging (entry of dye into the cell); type: cell-based; settings: for entry of dye into the cell / binding to cell surface: living cells stained with dye, conclusion from staining and elution
[4] = test system: HepG2 cells; test: Perfusion (elution) of stained HepG2 cells, Stokes luminescence intensity vs perfusion time; type: cell-based
[5] = test system: mitochondria; settings: known dyes; cited from earlier work

Molecule: CC(=O)OCOC(=O)c1ccccc1-c1c2ccc(=N)cc-2oc2cc(N)ccc12 [Rh110AM]
- intracellular distribution [1]: in cytoplasm

Molecule: CCCCCCCCCCCCCCCCOC(=O)c1ccccc1-c1c2ccc(=N)cc-2oc2cc(N)ccc12 [Rh110-C16]
- intracellular distribution [1]: distributes on cell membrane

Molecule: CCCCCCCCCCCCCCCCOC(=O)c1ccccc1-c1c2ccc(=[N+](CC)CC)cc-2oc2cc(N(CC)CC)ccc12 [RhB-C16]
- intracellular distribution [1]: distributes on cell membrane

Molecule: CCN(CC)c1ccc2c(-c3ccccc3C(=O)OC)c3ccc(N(CC)CC)cc3[o+]c2c1.[Cl-] [RhBME]
- distribution in cell [2]: distributes on mitochondria

Molecule: CCN(CC)c1ccc2c(-c3ccccc3C(=O)O)c3ccc(=[N+](CC)CC)cc-3oc2c1 [RhB, Rhodamine B]
- entry of dye into the cell / binding to cell surface [3]: difficult for RhB to enter a cell

Molecule: O=C(O)c1ccccc1C1=c2cc3c4c(c2Oc2c1cc1c5c2CCCN5CCC1)CCC[N+]=4CCC3 [Rh101, rhodamine 101]
- Stokes luminescence of the cells after perfusion ([4]; HepG2 cells stained 200 nM 60 mins, perfusion solution containing probenecid (2.5 mM, Tyrode) for 10 mins): almost disappeared
- anti-Stokes luminescence of stained cells compared with Rh101AM staining (FIG. 4(b) vs FIG. 3(b)) ([3]; HepG2, 200 nM, 60 mins, excited 635 nm, collected 573-613 nm, identical imaging and temperature conditions): much weaker
- entry of dye into the cell / binding to cell surface [3]: merely adheres outside the cell, instead of entering into the cell

Molecule: CC(=O)OCOC(=O)c1ccccc1C1=c2cc3c4c(c2Oc2c1cc1c5c2CCCN5CCC1)CCC[N+]=4CCC3 [Rh101AM]
- fluorescent maintained in cells after perfusion ([4]; HepG2 cells stained 200 nM 60 mins, perfusion solution containing or not containing probenecid for 10 mins, normalized to 0 min): ≥ 50%
- Stokes luminescence of the cells after perfusion ([4]; perfusion solution containing probenecid over 30 mins): still certain Stokes luminescence
- Stokes luminescence of the cells after perfusion ([4]; perfusion solution not containing probenecid for 25 mins): almost disappeared
- entry of dye into the cell / binding to cell surface [3]: significantly and intracellularly enriched and is difficult to be eluted

Molecule: CCN(CC)c1ccc2c(-c3ccccc3C(=O)OCOC(C)=O)c3ccc(=[N+](CC)CC)cc-3oc2c1 [RhBAM]
- intracellular distribution [1]: in cytoplasm

Molecule: CCN(CC)c1ccc2c(-c3ccccc3C(=O)OCc3ccc(C(=O)Nc4cc5cccnc5c5ncccc45)cc3)c3ccc(=[N+](CC)CC)cc-3oc2c1 [RPA, Rhodamine B-[(1,10-phenanthrolin-5-yl)aminocarbonyl]benzyl ester]
- subcellular localization [5]: localized in mitochondria

Molecule: tetramethylrhodamine methyl ester [TMRM]
- subcellular localization [5]: localized in mitochondria

Molecule: N#CC1=c2cc3c4c(c2Oc2c1cc1c5c2CCCN5CCC1)CCC[N+]=4CCC3 [Rh800]
- distribution in cell [2]: distributes on mitochondria

Molecule: COC(=O)c1ccccc1C1=c2cc3c4c(c2Oc2c1cc1c5c2CCCN5CCC1)CCC[N+]=4CCC3.[Cl-] [Rh101ME]
- distribution in cell [2]: distributes on mitochondria
